Assay [1] deals with HBx-HA (hepatitis B virus X protein, subtype ayw) (hepatitis B virus (subtype ayw)) (UniProt P03165). Nature of the assay: co-IP.
Assay [2] addresses endogenous NEMO (human (endogenous in Huh7)) (UniProt Q9Y6K9). Nature of the assay: co-IP; about 7.8×10^6 Huh7 cells transfected with wt HBV1.2mer, 72 h; lysates immunoprecipitated with anti-NEMO antibody; blotted with anti-NEMO, anti-Flip and anti-HBx.
A further assay deals with NEMO-FLAG (UniProt Q9Y6K9). In words: co-IP.

Protein sequences, listed by entry. Tags and fused reporters are not part of them.
UniProt P03165: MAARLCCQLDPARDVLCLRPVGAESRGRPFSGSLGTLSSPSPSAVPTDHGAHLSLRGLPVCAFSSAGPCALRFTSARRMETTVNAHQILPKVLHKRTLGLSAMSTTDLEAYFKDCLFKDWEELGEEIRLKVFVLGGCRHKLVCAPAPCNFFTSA
UniProt Q9Y6K9: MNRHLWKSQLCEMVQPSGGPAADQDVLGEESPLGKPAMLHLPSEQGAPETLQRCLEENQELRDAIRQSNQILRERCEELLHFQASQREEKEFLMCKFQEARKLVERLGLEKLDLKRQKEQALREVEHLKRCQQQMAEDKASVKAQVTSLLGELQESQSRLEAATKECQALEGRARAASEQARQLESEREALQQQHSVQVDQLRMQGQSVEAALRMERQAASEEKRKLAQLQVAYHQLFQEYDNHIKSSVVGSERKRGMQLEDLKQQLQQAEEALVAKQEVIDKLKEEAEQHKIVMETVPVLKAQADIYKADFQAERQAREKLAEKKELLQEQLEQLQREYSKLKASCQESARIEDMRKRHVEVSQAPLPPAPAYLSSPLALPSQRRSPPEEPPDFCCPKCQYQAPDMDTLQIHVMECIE

These are yes or no findings as the source states them, for the method shown. In cells and extracts the contact can be indirect. Some entries that bind do so weakly or less than the wild type.

For NEMO-FLAG (from UniProt Q9Y6K9 1-419), the binding entry in assay [1] is “binds”.
On to “genome-driven HBx (expressed from the replication-competent wt HBV1.2mer) (from UniProt P03165 1-154)”, for which, in assay [2], the binding result is listed as “binds”.
Turning to “HBx-HA (hepatitis B virus X protein, subtype ayw) (from UniProt P03165 1-154)”, the binding entry with NEMO-FLAG is “binds”.

For the origin of these results see paper PMC3587578.
